In the supplement of paper PMC10849652:
The list shows a part of the results.

Protein sequences, listed by entry. Tags and fused reporters are not part of them. Lines headed by an entry give the natural chain unless they say otherwise; changes in a name come on top.
UniProt O43633: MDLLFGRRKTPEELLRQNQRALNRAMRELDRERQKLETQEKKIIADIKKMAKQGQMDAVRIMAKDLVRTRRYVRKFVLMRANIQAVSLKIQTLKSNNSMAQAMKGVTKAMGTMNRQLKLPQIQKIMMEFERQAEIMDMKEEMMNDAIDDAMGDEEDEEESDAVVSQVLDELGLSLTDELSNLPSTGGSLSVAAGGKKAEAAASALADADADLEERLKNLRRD
UniProt Q14839: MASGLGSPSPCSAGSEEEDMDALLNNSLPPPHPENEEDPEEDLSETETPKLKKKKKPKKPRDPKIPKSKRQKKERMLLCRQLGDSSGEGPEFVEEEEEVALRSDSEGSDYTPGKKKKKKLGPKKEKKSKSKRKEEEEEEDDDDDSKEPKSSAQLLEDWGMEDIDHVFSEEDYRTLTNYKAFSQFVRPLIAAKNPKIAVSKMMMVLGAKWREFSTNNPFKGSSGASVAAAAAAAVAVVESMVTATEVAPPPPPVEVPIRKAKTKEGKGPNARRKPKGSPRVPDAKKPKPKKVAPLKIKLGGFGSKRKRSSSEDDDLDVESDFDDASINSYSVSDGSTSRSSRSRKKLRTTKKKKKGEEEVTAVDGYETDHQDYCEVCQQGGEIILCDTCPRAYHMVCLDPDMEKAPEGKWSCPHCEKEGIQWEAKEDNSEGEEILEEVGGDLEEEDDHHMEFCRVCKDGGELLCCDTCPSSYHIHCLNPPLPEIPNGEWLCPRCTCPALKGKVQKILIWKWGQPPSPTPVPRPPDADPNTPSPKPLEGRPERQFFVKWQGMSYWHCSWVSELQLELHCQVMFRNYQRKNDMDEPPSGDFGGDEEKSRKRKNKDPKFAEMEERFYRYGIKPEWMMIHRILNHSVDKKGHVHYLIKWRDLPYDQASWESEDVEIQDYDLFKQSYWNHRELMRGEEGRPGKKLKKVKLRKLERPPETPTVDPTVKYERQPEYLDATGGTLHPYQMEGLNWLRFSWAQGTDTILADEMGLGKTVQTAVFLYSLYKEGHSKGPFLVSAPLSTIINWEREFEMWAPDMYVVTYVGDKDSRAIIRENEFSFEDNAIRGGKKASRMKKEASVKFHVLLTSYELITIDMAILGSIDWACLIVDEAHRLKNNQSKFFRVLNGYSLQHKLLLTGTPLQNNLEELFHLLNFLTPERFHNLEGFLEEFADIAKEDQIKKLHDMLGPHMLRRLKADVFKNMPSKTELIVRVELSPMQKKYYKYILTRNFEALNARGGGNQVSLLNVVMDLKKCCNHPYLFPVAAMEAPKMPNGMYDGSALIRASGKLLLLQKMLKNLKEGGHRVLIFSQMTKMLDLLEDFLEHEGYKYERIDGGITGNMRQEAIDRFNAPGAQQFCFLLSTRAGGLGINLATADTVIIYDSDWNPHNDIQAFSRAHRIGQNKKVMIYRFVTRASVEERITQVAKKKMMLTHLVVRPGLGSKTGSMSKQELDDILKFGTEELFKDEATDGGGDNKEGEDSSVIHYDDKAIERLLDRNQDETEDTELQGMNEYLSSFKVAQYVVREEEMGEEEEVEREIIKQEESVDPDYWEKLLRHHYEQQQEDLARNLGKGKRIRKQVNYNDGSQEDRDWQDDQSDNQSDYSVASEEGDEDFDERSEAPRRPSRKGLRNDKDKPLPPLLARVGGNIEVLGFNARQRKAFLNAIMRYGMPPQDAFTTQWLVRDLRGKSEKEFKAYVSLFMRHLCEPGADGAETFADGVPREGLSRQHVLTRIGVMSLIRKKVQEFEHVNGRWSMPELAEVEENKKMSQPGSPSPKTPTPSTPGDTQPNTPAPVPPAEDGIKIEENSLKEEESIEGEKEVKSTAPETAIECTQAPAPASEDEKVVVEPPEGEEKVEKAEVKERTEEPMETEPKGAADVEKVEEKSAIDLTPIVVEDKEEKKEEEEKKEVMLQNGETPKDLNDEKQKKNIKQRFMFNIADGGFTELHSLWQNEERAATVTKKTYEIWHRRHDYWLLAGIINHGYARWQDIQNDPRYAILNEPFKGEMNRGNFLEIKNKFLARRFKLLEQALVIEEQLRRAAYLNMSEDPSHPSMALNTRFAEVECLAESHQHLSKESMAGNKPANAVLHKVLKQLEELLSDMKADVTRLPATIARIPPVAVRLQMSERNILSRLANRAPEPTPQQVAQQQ
UniProt Q8TAP6: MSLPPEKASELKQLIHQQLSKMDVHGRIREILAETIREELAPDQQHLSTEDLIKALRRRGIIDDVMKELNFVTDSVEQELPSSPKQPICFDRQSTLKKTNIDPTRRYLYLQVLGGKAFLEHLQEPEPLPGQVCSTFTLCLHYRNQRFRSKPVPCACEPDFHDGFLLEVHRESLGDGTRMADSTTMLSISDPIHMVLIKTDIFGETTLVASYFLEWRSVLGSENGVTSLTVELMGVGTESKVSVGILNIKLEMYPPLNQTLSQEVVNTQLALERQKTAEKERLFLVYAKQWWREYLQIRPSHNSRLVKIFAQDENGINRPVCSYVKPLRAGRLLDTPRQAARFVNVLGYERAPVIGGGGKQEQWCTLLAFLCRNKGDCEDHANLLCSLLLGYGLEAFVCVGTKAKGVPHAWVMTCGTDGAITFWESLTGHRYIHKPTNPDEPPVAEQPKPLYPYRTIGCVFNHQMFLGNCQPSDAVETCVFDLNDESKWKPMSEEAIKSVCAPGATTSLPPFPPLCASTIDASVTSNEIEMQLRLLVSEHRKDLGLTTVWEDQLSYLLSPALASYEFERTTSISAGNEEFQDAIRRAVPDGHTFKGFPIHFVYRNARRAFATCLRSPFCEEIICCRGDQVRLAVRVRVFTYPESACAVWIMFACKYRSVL
UniProt Q96JB5: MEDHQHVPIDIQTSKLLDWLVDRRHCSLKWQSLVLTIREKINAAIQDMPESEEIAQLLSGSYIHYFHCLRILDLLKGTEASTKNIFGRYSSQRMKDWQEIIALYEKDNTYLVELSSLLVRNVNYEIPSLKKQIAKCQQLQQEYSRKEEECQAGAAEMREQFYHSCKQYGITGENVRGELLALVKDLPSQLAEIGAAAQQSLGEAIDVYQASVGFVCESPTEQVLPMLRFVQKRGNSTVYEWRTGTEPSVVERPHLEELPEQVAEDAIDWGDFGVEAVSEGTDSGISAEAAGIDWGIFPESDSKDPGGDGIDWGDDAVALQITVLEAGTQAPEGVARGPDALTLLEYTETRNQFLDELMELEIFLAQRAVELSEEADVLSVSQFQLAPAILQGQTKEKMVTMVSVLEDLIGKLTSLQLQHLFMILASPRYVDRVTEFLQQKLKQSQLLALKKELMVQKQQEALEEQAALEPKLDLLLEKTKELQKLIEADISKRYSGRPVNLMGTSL
UniProt P35790, whole entry, looked up: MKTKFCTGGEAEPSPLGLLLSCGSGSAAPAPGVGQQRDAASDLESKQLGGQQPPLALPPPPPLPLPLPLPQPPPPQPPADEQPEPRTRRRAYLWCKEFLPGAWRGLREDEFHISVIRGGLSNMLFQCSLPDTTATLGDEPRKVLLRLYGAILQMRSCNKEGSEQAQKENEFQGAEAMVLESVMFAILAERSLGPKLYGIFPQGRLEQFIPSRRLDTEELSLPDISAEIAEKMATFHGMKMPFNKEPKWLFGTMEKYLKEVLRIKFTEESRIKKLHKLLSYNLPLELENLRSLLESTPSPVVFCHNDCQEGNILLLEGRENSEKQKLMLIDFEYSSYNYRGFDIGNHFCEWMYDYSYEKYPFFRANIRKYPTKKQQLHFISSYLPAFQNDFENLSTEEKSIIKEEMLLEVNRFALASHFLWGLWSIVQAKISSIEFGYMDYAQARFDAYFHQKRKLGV
UniProt Q14004, whole entry, looked up: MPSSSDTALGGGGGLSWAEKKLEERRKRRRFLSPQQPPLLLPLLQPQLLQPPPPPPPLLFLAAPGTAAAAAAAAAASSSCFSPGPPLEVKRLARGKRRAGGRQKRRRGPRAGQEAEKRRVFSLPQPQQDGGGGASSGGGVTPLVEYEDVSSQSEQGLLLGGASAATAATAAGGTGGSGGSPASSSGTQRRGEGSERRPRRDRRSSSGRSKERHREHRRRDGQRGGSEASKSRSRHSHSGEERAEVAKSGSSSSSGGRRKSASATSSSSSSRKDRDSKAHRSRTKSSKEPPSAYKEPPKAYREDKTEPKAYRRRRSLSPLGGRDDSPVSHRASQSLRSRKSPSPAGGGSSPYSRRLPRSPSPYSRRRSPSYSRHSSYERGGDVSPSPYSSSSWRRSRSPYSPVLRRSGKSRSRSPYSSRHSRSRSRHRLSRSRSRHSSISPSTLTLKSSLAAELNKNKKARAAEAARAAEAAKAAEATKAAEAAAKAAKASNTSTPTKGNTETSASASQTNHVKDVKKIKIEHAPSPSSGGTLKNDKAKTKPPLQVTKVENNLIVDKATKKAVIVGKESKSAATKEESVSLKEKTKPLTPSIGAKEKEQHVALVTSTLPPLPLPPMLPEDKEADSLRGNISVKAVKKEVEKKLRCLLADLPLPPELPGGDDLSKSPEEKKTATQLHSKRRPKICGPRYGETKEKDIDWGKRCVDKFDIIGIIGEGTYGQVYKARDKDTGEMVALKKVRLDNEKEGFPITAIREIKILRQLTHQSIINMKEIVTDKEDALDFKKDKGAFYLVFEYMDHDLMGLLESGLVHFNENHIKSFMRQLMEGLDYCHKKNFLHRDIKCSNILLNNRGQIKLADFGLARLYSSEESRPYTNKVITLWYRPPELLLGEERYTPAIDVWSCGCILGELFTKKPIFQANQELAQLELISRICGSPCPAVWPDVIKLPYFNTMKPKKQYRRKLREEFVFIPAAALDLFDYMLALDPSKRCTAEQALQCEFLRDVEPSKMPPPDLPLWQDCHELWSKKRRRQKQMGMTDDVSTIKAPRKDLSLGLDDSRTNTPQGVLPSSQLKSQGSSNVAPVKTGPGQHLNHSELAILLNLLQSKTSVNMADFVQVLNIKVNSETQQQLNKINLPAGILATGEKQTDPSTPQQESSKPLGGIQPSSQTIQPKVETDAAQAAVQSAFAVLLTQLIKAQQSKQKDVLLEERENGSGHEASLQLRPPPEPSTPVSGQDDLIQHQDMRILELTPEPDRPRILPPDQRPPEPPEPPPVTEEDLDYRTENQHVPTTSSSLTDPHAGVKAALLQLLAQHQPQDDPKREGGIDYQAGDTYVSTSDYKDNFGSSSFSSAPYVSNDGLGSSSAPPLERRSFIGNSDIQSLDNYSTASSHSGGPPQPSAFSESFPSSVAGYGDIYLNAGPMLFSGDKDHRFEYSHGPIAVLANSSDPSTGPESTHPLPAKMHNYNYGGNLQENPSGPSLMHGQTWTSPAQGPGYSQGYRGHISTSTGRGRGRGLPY
UniProt Q9Y6A4: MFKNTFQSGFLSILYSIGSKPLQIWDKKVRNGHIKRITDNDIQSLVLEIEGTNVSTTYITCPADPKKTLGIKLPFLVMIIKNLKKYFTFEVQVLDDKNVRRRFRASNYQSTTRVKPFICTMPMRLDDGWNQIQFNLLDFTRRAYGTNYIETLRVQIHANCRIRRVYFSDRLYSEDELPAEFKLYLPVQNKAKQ
UniProt P21127: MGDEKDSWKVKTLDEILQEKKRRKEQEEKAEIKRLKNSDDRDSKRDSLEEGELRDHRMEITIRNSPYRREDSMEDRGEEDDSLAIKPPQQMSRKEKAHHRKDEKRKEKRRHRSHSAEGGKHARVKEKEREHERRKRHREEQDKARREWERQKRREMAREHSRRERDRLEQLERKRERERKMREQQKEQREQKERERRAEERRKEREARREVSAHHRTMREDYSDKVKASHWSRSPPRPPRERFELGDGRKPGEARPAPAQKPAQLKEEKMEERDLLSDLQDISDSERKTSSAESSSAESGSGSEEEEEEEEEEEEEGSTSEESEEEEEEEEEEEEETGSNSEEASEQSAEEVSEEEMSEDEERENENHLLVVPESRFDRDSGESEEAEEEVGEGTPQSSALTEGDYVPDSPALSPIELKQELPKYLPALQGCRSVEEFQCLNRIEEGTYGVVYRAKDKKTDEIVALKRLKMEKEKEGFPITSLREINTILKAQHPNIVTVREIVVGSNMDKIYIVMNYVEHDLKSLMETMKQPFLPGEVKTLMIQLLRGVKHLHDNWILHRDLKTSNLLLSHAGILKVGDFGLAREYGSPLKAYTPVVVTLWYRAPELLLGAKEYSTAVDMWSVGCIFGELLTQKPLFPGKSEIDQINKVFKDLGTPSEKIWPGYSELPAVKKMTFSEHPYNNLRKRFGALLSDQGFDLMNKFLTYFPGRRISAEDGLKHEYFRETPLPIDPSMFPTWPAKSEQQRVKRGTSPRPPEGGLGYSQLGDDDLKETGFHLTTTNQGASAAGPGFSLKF
UniProt P41208: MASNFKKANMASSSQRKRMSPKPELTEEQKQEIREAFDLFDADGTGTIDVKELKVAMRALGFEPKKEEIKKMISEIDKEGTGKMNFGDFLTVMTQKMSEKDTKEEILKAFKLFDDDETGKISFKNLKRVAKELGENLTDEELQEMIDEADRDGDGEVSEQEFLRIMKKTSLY
UniProt O15182: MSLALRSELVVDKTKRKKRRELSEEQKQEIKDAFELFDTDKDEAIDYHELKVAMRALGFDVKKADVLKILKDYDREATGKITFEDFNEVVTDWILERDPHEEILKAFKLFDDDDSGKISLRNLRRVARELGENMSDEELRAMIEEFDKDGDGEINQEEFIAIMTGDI

The targets below were run with Cn1cc(-c2ccc3c(c2)CCN3C(=O)Cc2cccc(C(F)(F)F)c2)c2c(N)ncnc21 (assay: log2 fold change, soluble protein after heating vs DMSO (PISA); higher = thermal stabilisation; K562 cells, 10 uM, 30 min; active = over 0.2 and 3.5 SD of the protein, either way, in both replicates (recomputed)).
Procedure, shortened: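 Thermal stability values are relative to control samples and come from duplicates. They are expressed as log2 fold changes. For measurement, K562 cells (2×10^6 cells/mL) received 10 μM compound for 30 min, and aliquots were heated for 3 min over 48°C-58°C, pooled, and extracted at 4°C in PBS with 0.5% NP-40. Soluble protein, the supernatant after 21,000xg for 90 min, was quantified by TMTpro 16plex LC-MS/MS with equalised channel sums.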

log2 fold change, inactive:
CHIC2 (UniProt Q9UKJ5) 0.015, CFDP1 (UniProt Q9UEE9) 0.005, CHMP2A (UniProt O43633) 0.007, CHD4 isoform 2 (UniProt Q14839) -0.063, CEP76 (UniProt Q8TAP6) -0.078, CDK5RAP3 isoform 4 (UniProt Q96JB5) 0.008, CHKA (UniProt P35790) -0.02, CDC73 (UniProt Q6P1J9) -0.393, CHCHD3 (UniProt Q9NX63) 0.042, CDKAL1 (UniProt Q5VV42) 0.079, CDK13 (UniProt Q14004) -0.028, CFAP20 (UniProt Q9Y6A4) -0.156, CHD6 (UniProt Q8TD26) 0.218, CHMP4A isoform 2 (UniProt Q9BY43) -0.005, CHMP4B (UniProt Q9H444) 0.012, CDK11B (UniProt P21127) 0.007, CHMP3 (UniProt Q9Y3E7) 0.035, CFAP298 (UniProt P57076) -0.104, CETN2 (UniProt P41208) -0.013, CHAC2 (UniProt Q8WUX2) -0.004, CETN3 (UniProt O15182) -0.026, CHD3 isoform 3 (UniProt Q12873) -0.06, CFL2 (UniProt Q9Y281) 0.087
